Some of these results come from one statement about several compounds together.
molecular target: T1, human histamine H3 receptor (Homo sapiens, UniProt Q9Y5N1); assay: Histamine H3 functional antagonist assay ([35S]GTPγS SPA on membranes); type: biochemical; details: membranes of CHO K1 cells expressing human histamine H3; histamine 0.3 μM
T1 construct: expressed in transfected cells; host or cells: CHO K1 cells carrying the pSwitch regulatory plasmid, transfected with pGeneH3, induced with mifepristone; clone 3H3
Text: A membrane preparation containing histamine H3 receptors may be prepared in accordance with the following procedures:
(i) Generation of Histamine H3 Cell Line
DNA encoding the human histamine H3 gene (Huvar, A. et al. (1999) Mol. Pharmacol. 55(6), 1101-1107) was cloned into a holding vector, pCDNA3.1 TOPO (InVitrogen) and its cDNA was isolated from this vector by restriction digestion of plasmid DNA with the enzymes BamH1 and Not-1 and ligated into the inducible expression vector pGene (InVitrogen) digested with the same enzymes. The GeneSwitch™ system (a system where in transgene expression is switched off in the absence of an inducer and switched on in the presence of an inducer) was performed as described in U.S. Pat. Nos. 5,364,791; 5,874,534; and 5,935,934. Ligated DNA was transformed into competent DH5α E. coli host bacterial cells and plated onto Luria Broth (LB) agar containing Zeocin™ (an antibiotic which allows the selection of cells expressing the sh ble gene which is present on pGene and pSwitch) at 50 μg ml^−1. Colonies containing the re-ligated plasmid were identified by restriction analysis. DNA for transfection into mammalian cells was prepared from 250 ml cultures of the host bacterium containing the pGeneH3 plasmid and isolated using a DNA preparation kit (Qiagen Midi-Prep) as per manufacturers guidelines (Qiagen).
CHO K1 cells previously transfected with the pSwitch regulatory plasmid (InVitrogen) were seeded at 2×10e6 cells per T75 flask in Complete Medium, containing Hams F12 (GIBCOBRL, Life Technologies) medium supplemented with 10% v/v dialysed foetal bovine serum, L-glutamine, and hygromycin (100 μg ml^−1), 24 hours prior to use. Plasmid DNA was transfected into the cells using Lipofectamine plus according to the manufacturers guidelines (InVitrogen). 48 hours post transfection cells were placed into complete medium supplemented with 500 μg ml^−1 Zeocin™.
10-14 days post selection 10 nM Mifepristone (InVitrogen), was added to the culture medium to induce the expression of the receptor. 18 hours post induction cells were detached from the flask using ethylenediamine tetra-acetic acid (EDTA; 1:5000; InVitrogen), following several washes with phosphate buffered saline pH 7.4 and resuspended in Sorting Medium containing Minimum Essential Medium (MEM), without phenol red, and supplemented with Earles salts and 3% Foetal Clone II (Hyclone). Approximately 1×10e7 cells were examined for receptor expression by staining with a rabbit polyclonal antibody, 4a, raised against the N-terminal domain of the histamine H3 receptor, incubated on ice for 60 minutes, followed by two washes in sorting medium. Receptor bound antibody was detected by incubation of the cells for 60 minutes on ice with a goat anti rabbit antibody, conjugated with Alexa 488 fluorescence marker (Molecular Probes). Following two further washes with Sorting Medium, cells were filtered through a 50 μm Filcon™ (BD Biosciences) and then analysed on a FACS Vantage SE Flow Cytometer fitted with an Automatic Cell Deposition Unit. Control cells were non-induced cells treated in a similar manner. Positively stained cells were sorted as single cells into 96-well plates, containing Complete Medium containing 500 μg ml^−1 Zeocin™ and allowed to expand before reanalysis for receptor expression via antibody and ligand binding studies. One clone, 3H3, was selected for membrane preparation.
(ii) Membrane Preparation from Cultured Cells
All steps of the protocol are carried out at 4° C. and with pre-cooled reagents. The cell pellet is resuspended in 10 volumes of buffer A2 containing 50 mM N-2-hydroxyethylpiperazine-N′-2-ethanesulfonic acid (HEPES) (pH 7.40) supplemented with 10e-4M leupeptin (acetyl-leucyl-leucyl-arginal; Sigma L2884), 25 μg/ml bacitracin (Sigma B0125), 1 mM ethylenediamine tetra-acetic acid (EDTA), 1 mM phenylmethylsulfonyl fluoride (PMSF) and 2×10e-6M pepstain A (Sigma). […]

Sequences of proteins named here, by UniProt entry; tags and fusion partners are left off. A change or cut given only in a name is not applied to a line headed by its entry.
UniProt Q9Y5N1: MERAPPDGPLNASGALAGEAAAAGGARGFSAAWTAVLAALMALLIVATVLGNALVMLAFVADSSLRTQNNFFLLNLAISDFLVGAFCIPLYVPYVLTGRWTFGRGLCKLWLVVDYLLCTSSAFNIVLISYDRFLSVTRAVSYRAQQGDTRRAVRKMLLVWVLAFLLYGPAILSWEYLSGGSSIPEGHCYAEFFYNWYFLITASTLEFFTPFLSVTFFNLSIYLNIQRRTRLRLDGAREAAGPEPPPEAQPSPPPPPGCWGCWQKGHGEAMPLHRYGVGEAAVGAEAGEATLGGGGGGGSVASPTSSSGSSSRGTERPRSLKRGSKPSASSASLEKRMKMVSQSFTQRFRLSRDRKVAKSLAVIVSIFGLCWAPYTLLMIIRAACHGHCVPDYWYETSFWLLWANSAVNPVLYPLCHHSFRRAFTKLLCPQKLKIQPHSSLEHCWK

Antagonism (pKb), > 6.5 pKb:
COc1ccc(-c2nn[nH]c2C(=O)Nc2ccc3c(c2)CCN(C2CCC2)CC3)cc1OC.O=C(O)C(F)(F)F [Example 212, 4-[3,4-bis(Methyloxy)phenyl]-N-(3-cyclobutyl-2,3,4,5-tetrahydro-1H-3-benzazepin-7-yl)-1H-1,2,3-triazole-5-carboxamide trifluoroacetate]
COc1cccc(C(=O)Nc2ccc3c(c2)CCN(C2CCC2)CC3)c1.O=C(O)C(F)(F)F [Example 183, N-(3-Cyclobutyl-2,3,4,5-tetrahydro-1H-3-benzazepin-7-yl)-3-(methyloxy)benzamide trifluoroacetate]
N#Cc1cccc(C(=O)Nc2ccc3c(c2)CCN(C2CCC2)CC3)c1 [Example 120, 3-Cyano-N-(3-cyclobutyl-2,3,4,5-tetrahydro-1H-3-benzazepin-7-yl)benzamide]
Cc1occc1C(=O)Nc1ccc2c(c1)CCN(C1CCC1)CC2 [Example 64, N-(3-Cyclobutyl-2,3,4,5-tetrahydro-1H-3-benzazepin-7-yl)-2-methyl-3-furancarboxamide]
CC(C)NC(=O)Nc1ccc2c(c1)CCN(C1CCC1)CC2 [Example 133, N-(3-Cyclobutyl-2,3,4,5-tetrahydro-1H-3-benzazepin-7-yl)-N′-(1-methylethyl)urea]
O=C(Nc1ccc2c(c1)CCN(C1CCC1)CC2)N1CCCCC1 [Example 157, N-(3-Cyclobutyl-2,3,4,5-tetrahydro-1H-3-benzazepin-7-yl)-1-piperidinecarboxamide]
N#Cc1cccc(-c2cnc(C(=O)Nc3ccc4c(c3)CCN(C3CCC3)CC4)cn2)c1 [Example 117, 5-(3-Cyanophenyl)-N-(3-cyclobutyl-2,3,4,5-tetrahydro-1H-3-benzazepin-7-yl)-2-pyrazinecarboxamide]
Cc1nnnn1-c1ccc(C(=O)Nc2ccc3c(c2)CCN(C2CCC2)CC3)cc1 [Example 42, N-(3-Cyclobutyl-2,3,4,5-tetrahydro-1H-3-benzazepin-7-yl)-4-(5-methyl-1H-tetrazol-1-yl)benzamide]
O=C(Nc1ccc2c(c1)CCN(C1CCC1)CC2)c1cnn2cccnc12 [Example 49, N-(3-Cyclobutyl-2,3,4,5-tetrahydro-1H-3-benzazepin-7-yl)pyrazolo[1,5-a]pyrimidine-3-carboxamide]
O=C(Nc1ccc2c(c1)CCN(C1CCC1)CC2)N1CCOCC1 [Example 1, N-(3-Cyclobutyl-2,3,4,5-tetrahydro-1H-3-benzazepin-7-yl)-4-morpholinecarboxamide]
O=C(Nc1ccc2c(c1)CCN(C1CCC1)CC2)Nc1cccc2cccnc12 [Example 135, N-(3-Cyclobutyl-2,3,4,5-tetrahydro-1H-3-benzazepin-7-yl)-N′-8-quinolinylurea]
COc1ccccc1/C=C/C(=O)Nc1ccc2c(c1)CCN(C1CCC1)CC2.O=C(O)C(F)(F)F [Example 256, (2E)-N-(3-Cyclobutyl-2,3,4,5-tetrahydro-1H-3-benzazepin-7-yl)-3-[2-(methyloxy)phenyl]-2-propenamide trifluoroacetate]
O=C(Nc1ccc2c(c1)CCN(C1CCC1)CC2)c1cc2ccccc2s1.O=C(O)C(F)(F)F [Example 184, N-(3-Cyclobutyl-2,3,4,5-tetrahydro-1H-3-benzazepin-7-yl)-1-benzothiophene-2-carboxamide trifluoroacetate]
O=C(Nc1ccc2c(c1)CCN(C1CCC1)CC2)c1cnn(-c2ccccc2)n1 [Example 73, N-(3-Cyclobutyl-2,3,4,5-tetrahydro-1H-3-benzazepin-7-yl)-2-phenyl-2H-1,2,3-triazole-4-carboxamide]
O=C(Nc1ccc2c(c1)CCN(C1CCC1)CC2)c1cnc(OC2CCOCC2)cn1 [Example 114, N-(3-Cyclobutyl-2,3,4,5-tetrahydro-1H-3-benzazepin-7-yl)-5-(tetrahydro-2H-pyran-4-yloxy)-2-pyrazinecarboxamide]
O=C(/C=C/c1ccccc1)Nc1ccc2c(c1)CCN(C1CCC1)CC2.O=C(O)C(F)(F)F [Example 254, (2E)-N-(3-Cyclobutyl-2,3,4,5-tetrahydro-1H-3-benzazepin-7-yl)-3-phenyl-2-propenamide trifluoroacetate]
N#Cc1ccc(N2CCN(C(=O)Nc3ccc4c(c3)CCN(C3CCC3)CC4)CC2)cc1 [Example 156, 4-(4-Cyanophenyl)-N-(3-cyclobutyl-2,3,4,5-tetrahydro-1H-3-benzazepin-7-yl)-1-piperazinecarboxamide]
O=C(Nc1ccc2c(c1)CCN(C1CCC1)CC2)c1ccc2[nH]nnc2c1 [Example 45, N-(3-Cyclobutyl-2,3,4,5-tetrahydro-1H-3-benzazepin-7-yl)-1H-1,2,3-benzotriazole-5-carboxamide]
Cc1cc(C(=O)Nc2ccc3c(c2)CCN(C2CCC2)CC3)on1 [Example 81, N-(3-Cyclobutyl-2,3,4,5-tetrahydro-1H-3-benzazepin-7-yl)-3-methyl-5-isoxazolecarboxamide]
Cc1ccc(C(=O)N(C)c2ccc3c(c2)CCN(C2CCC2)CC3)cn1 [Example 128, N-(3-Cyclobutyl-2,3,4,5-tetrahydro-1H-3-benzazepin-7-yl)-N,6-dimethyl-3-pyridinecarboxamide]
Cn1nc(C(=O)Nc2ccc3c(c2)CCN(C2CCC2)CC3)c(-c2ccccc2)n1.O=C(O)C(F)(F)F [Example 208, N-(3-Cyclobutyl-2,3,4,5-tetrahydro-1H-3-benzazepin-7-yl)-2-methyl-5-phenyl-2H-1,2,3-triazole-4-carboxamide trifluoroacetate]
O=C(Nc1ccc2c(c1)CCN(C1CCC1)CC2)c1ccc(N2CCNC2=O)cc1 [Example 88, N-(3-Cyclobutyl-2,3,4,5-tetrahydro-1H-3-benzazepin-7-yl)-4-(2-oxo-1-imidazolidinyl)benzamide]
O=C(Nc1ccc2c(c1)CCN(C1CCC1)CC2)Nc1ccccc1OC(F)(F)F [Example 140, N-(3-Cyclobutyl-2,3,4,5-tetrahydro-1H-3-benzazepin-7-yl)-N′-{2-[(trifluoromethyl)oxy]phenyl}urea]
CCC(CC)C(=O)Nc1ccc2c(c1)CCN(C1CCC1)CC2 [Example 27, N-(3-Cyclobutyl-2,3,4,5-tetrahydro-1H-3-benzazepin-7-yl)-2-ethylbutanamide]
Cc1ncccc1C(=O)Nc1ccc2c(c1)CCN(C1CCC1)CC2 [Example 60, N-(3-Cyclobutyl-2,3,4,5-tetrahydro-1H-3-benzazepin-7-yl)-2-methyl-3-pyridinecarboxamide]
O=C(Nc1ccc2c(c1)CCN(C1CCC1)CC2)c1ccc(-n2cccn2)nc1 [Example 40, N-(3-Cyclobutyl-2,3,4,5-tetrahydro-1H-3-benzazepin-7-yl)-6-(1H-pyrazol-1-yl)nicotinamide]
O=C(Nc1ccc2c(c1)CCN(C1CCC1)CC2)c1ccc2cc[nH]c2c1.O=C(O)C(F)(F)F [Example 230, N-(3-Cyclobutyl-2,3,4,5-tetrahydro-1H-3-benzazepin-7-yl)-1H-indole-6-carboxamide trifluoroacetate]
